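Viability assay of Plasmodium falciparum sporozoites; the read-out is not stated. The concentration is filed as 10 mM, unlikely as a test dose, so the dose is not known. Direction is inferred from retests: higher values go with lower viability. Strong results were mostly tested again. Of about 34,000 compounds tested this way, about 280 (0.84%) reached 50% or more in at least one test.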

The filed quantity is “Percent Effect” (%).
The record does not define 0% and 100%; most values in the screen are far below 50% and negative numbers occur (in some assays of this library far below -100).
This is an unselected part of the compounds tested.
Two or more numbers in one place are separate tests of the same structure; such repeats can differ widely.

{"smiles": "CCCS(=O)(=O)N1CCOCC2(CCN(c3ccccn3)C2)C1.O=C(O)C(F)(F)F", "stereo": "stereo unspecified", "Percent Effect": 1.316}
{"smiles": "CN(C)c1ccc(C(=O)NCc2csc(Br)c2)cn1", "Percent Effect": 6.887}
{"smiles": "CN1CCC(CCNC(=O)N2CCN(Cc3ccon3)CC2)CC1", "Percent Effect": -19.61}
{"smiles": "O=C(CCOc1ccccc1F)N1CCCC1Cn1cccn1", "stereo": "stereo unspecified", "Percent Effect": -4.523}
{"smiles": "O=c1c(NCCO)c(N2CCN(c3ccccc3)CC2)c1=O", "Percent Effect": -0.9991}
{"smiles": "Cc1cn[nH]c1C1COCCN1C(=O)c1cc(F)ccc1F", "stereo": "stereo unspecified", "Percent Effect": 5.327}
{"smiles": "CC1CCCCN1c1nc2c(c(=O)[nH]1)CCN(Cc1cccnc1)C2", "stereo": "stereo unspecified", "Percent Effect": -24.05}
{"smiles": "O=C(c1ccnc(C2CCNCC2)c1)N1CCCC(CO)C1", "stereo": "stereo unspecified", "Percent Effect": 6.468}
{"smiles": "CCN(Cc1ccccc1)C(=O)CN1CCOC(Cn2cncn2)C1", "stereo": "stereo unspecified", "Percent Effect": 10.22}
{"smiles": "Cc1noc(C)c1CN(Cc1cccs1)C1CCS(=O)(=O)C1", "stereo": "stereo unspecified", "Percent Effect": 11.15}
{"smiles": "COC(=O)c1ccc(N2CCN(CCN3CCOCC3)C(C)C2)cc1", "stereo": "stereo unspecified", "Percent Effect": 1.711}
{"smiles": "Cc1cncc(C2CCCN(C(=O)c3cn(C)nc3C)C2)n1", "stereo": "stereo unspecified", "Percent Effect": 7.197}
{"smiles": "CC(C)c1n[nH]c(C2CN(Cc3nnc(C4CC4)o3)CCO2)n1", "stereo": "stereo unspecified", "Percent Effect": -8.47}
{"smiles": "O=C(O)C(F)(F)F.O=C(O)C(F)(F)F.[H][C@@]12CN(Cc3ccco3)C[C@]1([H])[C@H](OC)CCN2Cc1cnn(C)c1", "Percent Effect": -10.09}
{"smiles": "O=c1[nH][nH]cc1-c1ccnc(NCCc2cccnc2)n1", "Percent Effect": 12.96}
{"smiles": "O=C(NCc1nnc2n1CCCC2)N(Cc1ccccc1F)C1CC1", "Percent Effect": -3.647}
{"smiles": "Cc1cc(Cl)ccc1NCc1ccc(C(=O)N(C)C)[nH]1", "Percent Effect": 1.173}
{"smiles": "O=C(CCCn1cncn1)N1CCC2(CCCN(CC3CC3)C2=O)C1", "stereo": "stereo unspecified", "Percent Effect": 8.71}
{"smiles": "O=C(NCc1ccccn1)c1cncc(C2CCCN2)n1", "stereo": "stereo unspecified", "Percent Effect": 6.119}
{"smiles": "COc1ccccc1C(=O)NCC(c1cccn1C)N1CCOCC1", "stereo": "stereo unspecified", "Percent Effect": "-14.84 & 15.13 & -6.345"}
{"smiles": "CCc1nsc(NC2CCCn3nc(COC)nc32)n1", "stereo": "stereo unspecified", "Percent Effect": -14.16}
{"smiles": "CC(=O)Nc1nc2c(s1)C1(CCN(C)CC1)Nc1ccccc1S2", "Percent Effect": 12.96}
{"smiles": "O=C(c1ccon1)N1CCN(c2ccncc2Cl)CC1", "Percent Effect": -17.34}
{"smiles": "Cn1ncc2c(N3CCN(C(=O)c4ccsc4)CC3)ncnc21", "Percent Effect": 5.149}
{"smiles": "Cc1cc(CN2CCN(C(=O)NCc3csc(C)n3)CC2)no1", "Percent Effect": 10.92}
{"smiles": "O=C(NCC1CC1)N1CCN(Cc2ccc3c(c2)OCCO3)CC1", "Percent Effect": 3.178}
{"smiles": "Cc1cccc(N(C)S(=O)(=O)c2cc(C(=O)O)cs2)c1C", "Percent Effect": -1.643}
{"smiles": "CCN(C(C)=O)C1CCN(c2nccc(C3CCCC3)n2)C1", "stereo": "stereo unspecified", "Percent Effect": 25.4}
{"smiles": "COCC1CN(C(=O)c2cccs2)Cc2nccn2C1", "stereo": "stereo unspecified", "Percent Effect": 12.59}
{"smiles": "CN(C)c1ncccc1CNC(=O)NCc1ccc(Cl)s1", "Percent Effect": 1.602}
{"smiles": "COCC1CC2(CCN(Cc3cccnc3)CC2)CN1C(C)C", "stereo": "stereo unspecified", "Percent Effect": -28.47}
{"smiles": "CN1CCN(c2nc(O)c3c(-c4ccccn4)ccnc3n2)CC1", "Percent Effect": -15.45}
{"smiles": "Cc1noc(C2CCN(C(=O)CCCNc3ncccn3)CC2)n1", "Percent Effect": 0.2931}
{"smiles": "CC(C)n1c(C2CCCN(CC(=O)NC3CC3)C2)nc2ccccc21", "stereo": "stereo unspecified", "Percent Effect": 2.722}
{"smiles": "O=C(O)CNC(=O)Cc1csc(-c2ccccc2F)n1", "Percent Effect": 7.234}
{"smiles": "O=C(c1cccc(CNS(=O)(=O)c2ccc(F)cc2)c1)N1CCCC1", "Percent Effect": 7.022}
{"smiles": "O=C(O)C(c1ccc2c(c1)OCO2)N1CCC(C(=O)N2CCCC2)CC1", "stereo": "stereo unspecified", "Percent Effect": 6.009}
{"smiles": "CC(C)c1noc(CN(Cc2cccs2)C2CC2)n1", "Percent Effect": 9.815}
{"smiles": "COCC(=O)N1CCC2(CC1)CCN(Cc1ccccn1)C2=O.O=C(O)C(F)(F)F", "Percent Effect": -7.494}
{"smiles": "Cn1cc(CNC(=O)C2CCCN(Cc3cccc(F)c3)C2)cn1", "stereo": "stereo unspecified", "Percent Effect": 0.9879}
{"smiles": "Cc1oc(C)c(C(=O)NCc2cccnc2N(C)C)c1C", "Percent Effect": 11.54}
{"smiles": "CNc1nccnc1C1CN(C(=O)c2c[nH]cn2)CCO1", "stereo": "stereo unspecified", "Percent Effect": -0.1937}
{"smiles": "Cc1cccc(CN2CCC3(CCC(C(=O)N(C)C)O3)CC2)n1", "stereo": "stereo unspecified", "Percent Effect": -0.613}
{"smiles": "COc1ccc2cc(C3CN(C(=O)CCNC(C)=O)CCO3)ccc2c1", "stereo": "stereo unspecified", "Percent Effect": "97.44 & 100.2 & 98.47"}
{"smiles": "Cc1cnn(CCNCc2ccc(C#N)cc2F)c1", "Percent Effect": -20.8}
{"smiles": "CCn1ncc2c1C(COC)CN(c1ncc(F)cn1)C2.O=C(O)C(F)(F)F.O=C(O)C(F)(F)F", "stereo": "stereo unspecified", "Percent Effect": 20.49}
{"smiles": "CCc1nnc2n1CCN(C(=O)c1cc3cc(C)ccc3[nH]1)C2", "Percent Effect": 9.369}
{"smiles": "COc1ccc(-c2cn(CCn3c(C)cc(C)nc3=O)nn2)cn1", "Percent Effect": 2.676}
{"smiles": "O=C(NCC(c1ccc(F)cc1)N1CCOCC1)Nc1cn[nH]c1", "stereo": "stereo unspecified", "Percent Effect": -4.524}
{"smiles": "COc1cc(CNCCc2cnn(C)c2)cc(OC)c1OC", "Percent Effect": 10.45}
{"smiles": "Cc1nn(C)cc1-c1cncn1CCN(C)C1CCCC1.Cl", "Percent Effect": 8.526}
{"smiles": "O=C(O)C(F)(F)F.O=C(O)C(F)(F)F.[H][C@@]12CN(C(=O)c3ccoc3C)C[C@]1([H])OCCN2CCN1CCCC1", "Percent Effect": -7.474}
{"smiles": "CCN1CCN(c2nc(O)cc(Cc3ccccc3F)n2)CC1", "Percent Effect": 5.058}
{"smiles": "O=C(Cc1csc(-c2ccoc2)n1)NCCCN1CCCCC1", "Percent Effect": -8.421}

The first 5 entries again:

| SMILES | Percent Effect |
|---|---|
| `CCCS(=O)(=O)N1CCOCC2(CCN(c3ccccn3)C2)C1.O=C(O)C(F)(F)F` (stereo unspecified) | 1.316% |
| `CN(C)c1ccc(C(=O)NCc2csc(Br)c2)cn1` | 6.887% |
| `CN1CCC(CCNC(=O)N2CCN(Cc3ccon3)CC2)CC1` | -19.61% |
| `O=C(CCOc1ccccc1F)N1CCCC1Cn1cccn1` (stereo unspecified) | -4.523% |
| `O=c1c(NCCO)c(N2CCN(c3ccccc3)CC2)c1=O` | -0.9991% |

Data taken from ChEMBL document CHEMBL3988442, “University of Dundee, Small-Polar-MMV Screening Library” (2021).